PubChem BioAssay AID504791 – Drosophila RNAi Screening Center – 2011

Aim: 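Genes of the fly required for silencing by miRNA, siRNA or endo-siRNA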 (primary screen)
Cell system: Drosophila S2-derived reporter cells
Reagents: long dsRNA against Drosophila genes, about 150-250 ng dsRNA per well (siRNA assay); about 80-120 ng (miRNA assay)
Duration: about 5 days (siRNA assay); about 4 days (miRNA assay)
Challenge: copper sulfate induction of reporters: 25 µM (siRNA assay); 200 mM stated (miRNA assay), 1-2 days before reading
Detection: 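Dual luciferase assay: Renilla to firefly signal ratio in each well, scaled to the mean ratio of its plate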
Units: stable assay Renilla, run 1 in luminescence; stable assay firefly, run 1 in luminescence
Rule for the call: 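a well was a first-pass pick when its plate-scaled ratio rose above 1.5 (siRNA assay) or 1.6 (miRNA assay), or dropped below 0.6; a gene counted only if two separate dsRNAs agreed on retest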
The deposit covers about 23,000 reagents; below is an unselected part of those with a known target gene and a result. Over the whole deposit, 199 (0.86%) are marked active. 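Plate-scaled ratios behind the calls are not deposited; printed light signals are raw; many rows marked increased or decreased are still called inactive.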 The record does not give: the direction of the score.

Smox [DRSC18716]: stable assay Renilla, run 1 = 4835; stable assay firefly, run 1 = 2.93e5; Call = inactive
Syt1 [DRSC00156]: stable assay Renilla, run 1 = 5170; stable assay firefly, run 1 = 4.00e5; Call = inactive
Syt1 [DRSC00157]: stable assay Renilla, run 1 = 3031; stable assay firefly, run 1 = 3.46e5; Call = inactive
Syt1 [DRSC00158]: stable assay Renilla, run 1 = 5087; stable assay firefly, run 1 = 3.17e5; Call = inactive
Syt1 [DRSC00840]: stable assay Renilla, run 1 = 9099; stable assay firefly, run 1 = 2.25e5; Call = inactive
Syt1 [DRSC22077]: stable assay Renilla, run 1 = 9114; stable assay firefly, run 1 = 5.67e5; Call = inactive
CG34106 [DRSC01578]: stable assay Renilla, run 1 = 5146; stable assay firefly, run 1 = 3.87e5; Call = inactive
Msp300 [DRSC00854]: stable assay Renilla, run 1 = 5207; stable assay firefly, run 1 = 4.01e5; Call = inactive
Msp300 [DRSC00856]: stable assay Renilla, run 1 = 5587; stable assay firefly, run 1 = 4.26e5; Call = inactive
Msp300 [DRSC00857]: stable assay Renilla, run 1 = 6490; stable assay firefly, run 1 = 4.90e5; Call = inactive
Msp300 [DRSC00858]: stable assay Renilla, run 1 = 6311; stable assay firefly, run 1 = 4.70e5; Call = inactive
Msp300 [DRSC02360]: stable assay Renilla, run 1 = 8752; stable assay firefly, run 1 = 3.66e5; Call = inactive
Msp300 [DRSC03369]: stable assay Renilla, run 1 = 11101; stable assay firefly, run 1 = 3.59e5; Call = inactive
Msp300 [DRSC03370]: stable assay Renilla, run 1 = 7150; stable assay firefly, run 1 = 3.90e5; Call = inactive
RnpS1 [DRSC15154]: stable assay Renilla, run 1 = 10613; stable assay firefly, run 1 = 4.48e5; Call = inactive
CG16985 [DRSC08501]: stable assay Renilla, run 1 = 7302; stable assay firefly, run 1 = 4.38e5; Call = inactive
CG16734 [DRSC15143]: stable assay Renilla, run 1 = 6815; stable assay firefly, run 1 = 4.41e5; Call = inactive
Obp57a [DRSC22047]: stable assay Renilla, run 1 = 7917; stable assay firefly, run 1 = 4.53e5; Call = inactive
Taf11 [DRSC03448]: stable assay Renilla, run 1 = 5911; stable assay firefly, run 1 = 3.06e5; Call = inactive

2 of these entries in another layout.
CG34106 [DRSC01578]
- stable assay Renilla, run 1: 5146
- stable assay firefly, run 1: 3.87e5
- Call: inactive

Msp300 [DRSC00854]
- stable assay Renilla, run 1: 5207
- stable assay firefly, run 1: 4.01e5
- Call: inactive

The list goes on.
CG13720 [DRSC08329]: stable siRNA reporter change = reporter ratio raised past the hit cutoff; stable assay Renilla, run 1 = 8242; stable assay firefly, run 1 = 3.44e5; Call = active
SIDL [DRSC16077]: stable assay Renilla, run 1 = 8464; stable assay firefly, run 1 = 3.27e5; Call = inactive
CG4839 [DRSC02783]: stable assay Renilla, run 1 = 14232; stable assay firefly, run 1 = 4.36e5; Call = inactive
CG4839 [DRSC02784]: stable assay Renilla, run 1 = 7559; stable assay firefly, run 1 = 3.66e5; Call = inactive
mRpS31 [DRSC10556]: stable siRNA reporter change = reporter ratio lowered past the hit cutoff; stable assay Renilla, run 1 = 5140; stable assay firefly, run 1 = 4.22e5; Call = inactive
CG6553 [DRSC07002]: stable assay Renilla, run 1 = 6931; stable assay firefly, run 1 = 4.00e5; Call = inactive
Sirt4 [DRSC18290]: stable assay Renilla, run 1 = 4803; stable assay firefly, run 1 = 2.78e5; Call = inactive
Arpc1 [DRSC03438]: stable assay Renilla, run 1 = 7278; stable assay firefly, run 1 = 1.81e6; Call = inactive
CG8834 [DRSC07283]: stable assay Renilla, run 1 = 5539; stable assay firefly, run 1 = 2.95e5; Call = inactive
CkIalpha [DRSC20231]: miRNA reporter change = reporter ratio raised past the hit cutoff; stable assay Renilla, run 1 = 4179; stable assay firefly, run 1 = 4.84e5; Call = inactive
CkIalpha [DRSC22609]: miRNA reporter change = reporter ratio raised past the hit cutoff; stable assay Renilla, run 1 = 3140; stable assay firefly, run 1 = 3.75e5; Call = inactive
CkIalpha [DRSC23308]: stable assay Renilla, run 1 = 2992; stable assay firefly, run 1 = 3.09e5; Call = inactive
CkIalpha [DRSC25564]: miRNA reporter change = reporter ratio raised past the hit cutoff; Call = inactive
Nopp140 [DRSC11872]: stable assay Renilla, run 1 = 8370; stable assay firefly, run 1 = 4.84e5; Call = inactive
l(1)G0196 [DRSC20591]: stable assay Renilla, run 1 = 3639; stable assay firefly, run 1 = 2.98e5; Call = inactive
l(1)G0196 [DRSC20628]: stable assay Renilla, run 1 = 7079; stable assay firefly, run 1 = 4.14e5; Call = inactive
l(1)G0196 [DRSC20629]: stable assay Renilla, run 1 = 6039; stable assay firefly, run 1 = 5.07e5; Call = inactive
